No constants are given. Whether binding was seen depends on the method and setting. Some entries that bind do so weakly or less than the wild type.

The chains behind the UniProt entries cited, without tags or fusion partners.
UniProt Q99728: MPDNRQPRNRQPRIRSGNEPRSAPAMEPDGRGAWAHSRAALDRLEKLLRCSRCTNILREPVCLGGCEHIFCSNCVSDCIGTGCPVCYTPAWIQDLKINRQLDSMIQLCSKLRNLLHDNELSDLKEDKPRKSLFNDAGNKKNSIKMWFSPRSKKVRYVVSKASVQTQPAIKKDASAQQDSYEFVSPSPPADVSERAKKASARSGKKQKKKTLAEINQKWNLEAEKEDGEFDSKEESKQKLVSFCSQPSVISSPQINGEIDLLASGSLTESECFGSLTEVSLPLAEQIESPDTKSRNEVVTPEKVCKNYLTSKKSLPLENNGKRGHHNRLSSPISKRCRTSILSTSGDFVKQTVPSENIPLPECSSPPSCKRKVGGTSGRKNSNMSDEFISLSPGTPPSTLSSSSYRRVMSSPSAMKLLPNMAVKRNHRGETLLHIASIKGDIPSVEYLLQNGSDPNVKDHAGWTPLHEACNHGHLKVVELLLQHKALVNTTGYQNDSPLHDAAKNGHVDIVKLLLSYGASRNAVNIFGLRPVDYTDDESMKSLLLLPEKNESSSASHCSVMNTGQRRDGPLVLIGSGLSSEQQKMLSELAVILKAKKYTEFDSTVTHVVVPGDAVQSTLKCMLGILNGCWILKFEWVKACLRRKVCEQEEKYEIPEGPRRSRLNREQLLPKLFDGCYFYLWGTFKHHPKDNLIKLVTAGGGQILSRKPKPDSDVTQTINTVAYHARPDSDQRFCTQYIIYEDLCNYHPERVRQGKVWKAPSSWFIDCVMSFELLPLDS
UniProt P38398: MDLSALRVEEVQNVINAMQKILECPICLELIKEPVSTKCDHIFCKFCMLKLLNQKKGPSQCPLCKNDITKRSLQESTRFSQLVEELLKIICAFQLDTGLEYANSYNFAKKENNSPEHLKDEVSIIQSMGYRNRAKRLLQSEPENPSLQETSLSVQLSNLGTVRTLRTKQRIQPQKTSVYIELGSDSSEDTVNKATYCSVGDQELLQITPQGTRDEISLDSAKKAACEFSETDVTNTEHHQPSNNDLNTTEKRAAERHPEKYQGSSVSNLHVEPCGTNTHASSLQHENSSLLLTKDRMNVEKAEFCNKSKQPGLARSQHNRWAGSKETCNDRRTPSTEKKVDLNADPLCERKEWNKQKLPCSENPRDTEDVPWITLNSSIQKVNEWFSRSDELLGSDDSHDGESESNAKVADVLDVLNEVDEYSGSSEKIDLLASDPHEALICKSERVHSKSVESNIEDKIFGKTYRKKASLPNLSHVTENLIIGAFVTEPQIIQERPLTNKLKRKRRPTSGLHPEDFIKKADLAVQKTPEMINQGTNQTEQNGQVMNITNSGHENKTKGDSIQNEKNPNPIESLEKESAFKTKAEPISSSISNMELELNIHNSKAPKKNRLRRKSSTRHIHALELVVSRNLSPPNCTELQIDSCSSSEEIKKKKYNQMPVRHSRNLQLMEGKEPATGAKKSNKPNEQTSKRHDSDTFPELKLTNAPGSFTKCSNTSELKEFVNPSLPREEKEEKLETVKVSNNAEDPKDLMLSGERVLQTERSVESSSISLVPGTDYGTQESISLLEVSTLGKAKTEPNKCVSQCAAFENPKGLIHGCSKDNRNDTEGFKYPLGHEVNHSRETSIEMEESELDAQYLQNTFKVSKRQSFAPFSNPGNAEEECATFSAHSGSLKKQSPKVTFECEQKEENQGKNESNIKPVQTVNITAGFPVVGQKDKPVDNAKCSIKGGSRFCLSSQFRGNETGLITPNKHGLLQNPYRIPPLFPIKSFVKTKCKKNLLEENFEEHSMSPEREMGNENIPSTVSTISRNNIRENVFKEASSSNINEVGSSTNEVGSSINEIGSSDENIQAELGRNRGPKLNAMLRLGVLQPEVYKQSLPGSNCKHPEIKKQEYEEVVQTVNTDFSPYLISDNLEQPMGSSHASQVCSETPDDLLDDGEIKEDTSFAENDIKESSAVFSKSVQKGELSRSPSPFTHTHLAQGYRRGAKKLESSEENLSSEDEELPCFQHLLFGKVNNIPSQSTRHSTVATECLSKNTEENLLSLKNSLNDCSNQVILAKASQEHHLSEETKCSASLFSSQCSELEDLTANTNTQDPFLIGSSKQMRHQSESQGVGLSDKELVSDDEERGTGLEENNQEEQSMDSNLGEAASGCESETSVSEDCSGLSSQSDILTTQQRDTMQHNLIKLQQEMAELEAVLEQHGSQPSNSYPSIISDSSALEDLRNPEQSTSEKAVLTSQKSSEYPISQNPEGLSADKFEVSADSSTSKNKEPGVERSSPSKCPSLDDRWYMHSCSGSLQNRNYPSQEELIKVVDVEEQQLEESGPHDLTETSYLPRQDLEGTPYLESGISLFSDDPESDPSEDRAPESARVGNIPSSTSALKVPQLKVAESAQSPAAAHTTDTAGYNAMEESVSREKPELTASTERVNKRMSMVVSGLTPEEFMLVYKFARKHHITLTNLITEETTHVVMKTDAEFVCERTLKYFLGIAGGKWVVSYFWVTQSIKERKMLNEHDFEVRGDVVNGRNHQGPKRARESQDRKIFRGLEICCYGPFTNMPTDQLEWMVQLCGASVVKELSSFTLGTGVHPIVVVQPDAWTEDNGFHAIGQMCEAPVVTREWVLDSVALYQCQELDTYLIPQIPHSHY
UniProt P51587: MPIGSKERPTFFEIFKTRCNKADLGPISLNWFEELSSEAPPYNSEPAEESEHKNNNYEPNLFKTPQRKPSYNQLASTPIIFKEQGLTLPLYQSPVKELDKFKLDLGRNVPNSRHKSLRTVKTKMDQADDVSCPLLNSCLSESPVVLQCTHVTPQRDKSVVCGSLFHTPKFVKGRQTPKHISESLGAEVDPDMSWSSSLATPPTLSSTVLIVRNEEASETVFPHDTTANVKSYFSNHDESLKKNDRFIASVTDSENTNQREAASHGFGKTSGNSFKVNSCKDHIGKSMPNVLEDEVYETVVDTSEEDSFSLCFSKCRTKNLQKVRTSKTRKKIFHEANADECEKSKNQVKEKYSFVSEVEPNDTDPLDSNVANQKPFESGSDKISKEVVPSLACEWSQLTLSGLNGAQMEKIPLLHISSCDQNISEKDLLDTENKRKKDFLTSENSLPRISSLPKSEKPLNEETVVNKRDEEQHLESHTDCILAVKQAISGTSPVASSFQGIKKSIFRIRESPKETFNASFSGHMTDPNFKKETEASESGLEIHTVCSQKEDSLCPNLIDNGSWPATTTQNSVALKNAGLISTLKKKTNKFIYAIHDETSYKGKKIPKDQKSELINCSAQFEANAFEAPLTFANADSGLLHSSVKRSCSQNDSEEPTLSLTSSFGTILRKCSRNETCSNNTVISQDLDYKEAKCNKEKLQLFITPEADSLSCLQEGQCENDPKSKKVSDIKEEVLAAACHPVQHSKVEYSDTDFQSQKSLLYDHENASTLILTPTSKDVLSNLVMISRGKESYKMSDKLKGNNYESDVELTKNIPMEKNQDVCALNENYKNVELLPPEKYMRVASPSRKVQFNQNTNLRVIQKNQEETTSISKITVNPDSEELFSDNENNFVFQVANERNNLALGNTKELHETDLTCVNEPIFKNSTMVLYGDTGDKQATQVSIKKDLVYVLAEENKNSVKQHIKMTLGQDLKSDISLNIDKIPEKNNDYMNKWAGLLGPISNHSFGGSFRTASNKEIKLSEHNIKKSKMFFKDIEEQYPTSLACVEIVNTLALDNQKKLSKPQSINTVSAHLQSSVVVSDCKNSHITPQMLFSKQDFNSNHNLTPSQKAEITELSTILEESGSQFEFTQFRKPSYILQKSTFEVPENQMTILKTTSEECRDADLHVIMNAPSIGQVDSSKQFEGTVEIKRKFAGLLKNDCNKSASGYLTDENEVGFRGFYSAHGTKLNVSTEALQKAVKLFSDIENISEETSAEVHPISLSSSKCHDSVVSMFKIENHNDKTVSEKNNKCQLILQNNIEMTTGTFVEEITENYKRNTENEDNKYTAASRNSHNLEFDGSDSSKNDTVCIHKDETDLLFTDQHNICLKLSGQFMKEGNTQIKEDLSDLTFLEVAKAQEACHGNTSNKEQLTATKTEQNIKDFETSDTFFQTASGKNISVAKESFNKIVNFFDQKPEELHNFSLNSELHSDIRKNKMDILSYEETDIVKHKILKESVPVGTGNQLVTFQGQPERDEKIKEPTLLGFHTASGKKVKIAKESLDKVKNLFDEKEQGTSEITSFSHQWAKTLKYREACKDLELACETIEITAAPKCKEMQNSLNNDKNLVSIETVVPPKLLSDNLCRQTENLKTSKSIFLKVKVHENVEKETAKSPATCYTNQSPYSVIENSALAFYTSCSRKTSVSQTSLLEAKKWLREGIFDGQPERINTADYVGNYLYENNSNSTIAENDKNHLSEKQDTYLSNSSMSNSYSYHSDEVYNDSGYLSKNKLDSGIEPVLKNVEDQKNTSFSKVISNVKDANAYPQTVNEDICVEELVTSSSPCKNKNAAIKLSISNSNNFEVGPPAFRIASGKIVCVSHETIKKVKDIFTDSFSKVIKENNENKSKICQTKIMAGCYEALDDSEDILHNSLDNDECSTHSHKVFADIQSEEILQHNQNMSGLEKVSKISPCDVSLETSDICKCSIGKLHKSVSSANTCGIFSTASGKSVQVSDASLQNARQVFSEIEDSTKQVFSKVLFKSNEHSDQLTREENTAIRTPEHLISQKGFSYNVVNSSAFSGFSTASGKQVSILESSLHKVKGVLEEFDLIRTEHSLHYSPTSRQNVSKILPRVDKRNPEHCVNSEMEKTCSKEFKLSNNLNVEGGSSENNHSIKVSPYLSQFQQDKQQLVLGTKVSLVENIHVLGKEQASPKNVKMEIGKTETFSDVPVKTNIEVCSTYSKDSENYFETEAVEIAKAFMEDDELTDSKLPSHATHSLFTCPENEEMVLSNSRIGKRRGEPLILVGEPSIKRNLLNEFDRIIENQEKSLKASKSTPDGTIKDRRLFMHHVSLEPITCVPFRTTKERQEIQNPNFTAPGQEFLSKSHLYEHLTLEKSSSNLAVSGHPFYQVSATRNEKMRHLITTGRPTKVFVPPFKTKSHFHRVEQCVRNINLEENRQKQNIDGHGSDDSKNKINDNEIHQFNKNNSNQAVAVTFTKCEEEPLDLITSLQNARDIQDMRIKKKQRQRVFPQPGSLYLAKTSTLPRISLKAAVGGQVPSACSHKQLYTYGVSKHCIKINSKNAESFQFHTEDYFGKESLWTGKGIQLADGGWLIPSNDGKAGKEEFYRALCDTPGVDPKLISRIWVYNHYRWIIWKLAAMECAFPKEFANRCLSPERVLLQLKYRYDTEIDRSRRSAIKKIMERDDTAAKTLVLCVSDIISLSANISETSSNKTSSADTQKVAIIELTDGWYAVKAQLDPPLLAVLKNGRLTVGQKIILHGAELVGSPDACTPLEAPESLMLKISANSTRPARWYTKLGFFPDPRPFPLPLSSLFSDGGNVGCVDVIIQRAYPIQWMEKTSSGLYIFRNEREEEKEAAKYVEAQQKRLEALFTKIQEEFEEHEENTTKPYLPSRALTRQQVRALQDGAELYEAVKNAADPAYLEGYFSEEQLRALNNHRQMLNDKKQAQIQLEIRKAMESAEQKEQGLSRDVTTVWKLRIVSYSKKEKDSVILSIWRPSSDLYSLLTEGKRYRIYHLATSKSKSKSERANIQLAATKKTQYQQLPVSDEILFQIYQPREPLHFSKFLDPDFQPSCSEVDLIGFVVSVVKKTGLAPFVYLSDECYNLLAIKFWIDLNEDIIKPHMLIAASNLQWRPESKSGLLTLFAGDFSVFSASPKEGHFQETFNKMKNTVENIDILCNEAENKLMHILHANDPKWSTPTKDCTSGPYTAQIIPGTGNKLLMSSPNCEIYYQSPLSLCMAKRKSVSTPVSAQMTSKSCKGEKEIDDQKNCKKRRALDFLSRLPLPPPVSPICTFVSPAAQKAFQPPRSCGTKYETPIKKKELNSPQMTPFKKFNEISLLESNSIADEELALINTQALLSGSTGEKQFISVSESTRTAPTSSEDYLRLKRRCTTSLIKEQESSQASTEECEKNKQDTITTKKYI

1 molecule from publication PMC6177467 can be followed below.

Test in all cases: peptide or protein array; antibody array: cell cycle antibody array (Hypromatrix, 60 antibodies) and/or custom array (40 antibodies) immobilised on nitrocellulose, incubated with MM cell lysate, then with HRP-conjugated anti-APEX1 or anti-APEX2 antibody; partners identified by their address on the array
Experiment [1] deals with BARD1 (human (endogenous in MM cells)) (UniProt Q99728).
For experiment [2], the target named is BRCA1 (human (endogenous in MM cells)) (UniProt P38398).
Experiment [3] deals with P53 (human (endogenous in MM cells)) (UniProt P04637).
For experiment [4], the target named is T1, P73 (human (endogenous in ARP)) (UniProt O15350).
T1 sequence: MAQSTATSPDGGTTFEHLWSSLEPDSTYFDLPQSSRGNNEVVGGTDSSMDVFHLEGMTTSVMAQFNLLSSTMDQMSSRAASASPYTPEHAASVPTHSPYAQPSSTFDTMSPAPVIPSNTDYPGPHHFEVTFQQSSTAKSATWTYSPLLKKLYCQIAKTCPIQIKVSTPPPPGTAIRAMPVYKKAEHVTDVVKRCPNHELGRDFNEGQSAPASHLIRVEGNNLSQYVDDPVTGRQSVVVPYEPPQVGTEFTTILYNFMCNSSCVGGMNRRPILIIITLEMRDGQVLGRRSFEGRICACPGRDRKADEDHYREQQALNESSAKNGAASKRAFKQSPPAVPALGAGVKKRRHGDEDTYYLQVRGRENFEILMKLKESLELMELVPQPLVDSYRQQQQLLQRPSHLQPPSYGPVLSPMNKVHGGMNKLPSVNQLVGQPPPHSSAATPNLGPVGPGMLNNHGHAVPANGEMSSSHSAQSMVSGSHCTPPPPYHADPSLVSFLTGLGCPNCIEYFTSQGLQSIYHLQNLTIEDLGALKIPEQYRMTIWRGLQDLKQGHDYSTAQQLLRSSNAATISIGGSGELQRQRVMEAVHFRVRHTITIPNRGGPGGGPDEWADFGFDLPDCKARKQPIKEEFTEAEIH

Experiment [5] addresses T2, RAD52 (human (endogenous in MM cells)) (UniProt P43351).
T2 sequence: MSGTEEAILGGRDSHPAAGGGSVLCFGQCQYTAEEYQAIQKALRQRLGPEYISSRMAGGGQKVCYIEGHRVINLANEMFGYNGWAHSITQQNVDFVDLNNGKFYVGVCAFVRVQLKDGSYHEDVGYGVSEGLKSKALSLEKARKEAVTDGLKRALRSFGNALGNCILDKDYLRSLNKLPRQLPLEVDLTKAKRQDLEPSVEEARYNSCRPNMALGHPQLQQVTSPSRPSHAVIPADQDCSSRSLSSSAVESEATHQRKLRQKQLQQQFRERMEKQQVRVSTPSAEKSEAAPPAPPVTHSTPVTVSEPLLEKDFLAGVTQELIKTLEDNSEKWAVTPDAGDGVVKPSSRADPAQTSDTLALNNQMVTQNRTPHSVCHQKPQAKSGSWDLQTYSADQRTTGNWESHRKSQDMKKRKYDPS

Experiment [6] concerns the target BRCA2 (human (endogenous in MM cells)) (UniProt P51587).

B1: APEX2 (enzyme, UniProt Q9UBZ4 1-518)
chain: MLRVVSWNINGIRRPLQGVANQEPSNCAAVAVGRILDELDADIVCLQETKVTRDALTEPLAIVEGYNSYFSFSRNRSGYSGVATFCKDNATPVAAEEGLSGLFATQNGDVGCYGNMDEFTQEELRALDSEGRALLTQHKIRTWEGKEKTLTLINVYCPHADPGRPERLVFKMRFYRLLQIRAEALLAAGSHVIILGDLNTAHRPIDHWDAVNLECFEEDPGRKWMDSLLSNLGCQSASHVGPFIDSYRCFQPKQEGAFTCWSAVTGARHLNYGSRLDYVLGDRTLVIDTFQASFLLPEVMGSDHCPVGAVLSVSSVPAKQCPPLCTRFLPEFAGTQLKILRFLVPLEQSPVLEQSTLQHNNQTRVQTCQNKAQVRSTRPQPSQVGSSRGQKNLKSYFQPSPSCPQASPDIELPSLPLMSALMTPKTPEEKAVAKVVKGQAKTSEAKDEKELRTSFWKSVLAGPLRTPLCGGHREPCVMRTVKKPGPNLGRRFYMCARPRGPPTDPSSRCNFFLWSRPS
Turning to B1, the binding entry is on record as “binds” in experiment [1]; “binds” in experiment [2]; “binds” in experiment [3]; “no binding” in experiment [4]; “binds” in experiment [5]; “binds” in experiment [6].
